Results are given in words; binding and its absence hold for the method and conditions named. Binding seen in cells or lysates may run through a third protein. Here binding means that the protein was enriched with, or labelled near, the bait; the list need not be complete.

The target in the assay is T1, OTUD1, bait of the LC-MS/MS interactome screen (UniProt Q5VV17).
T1 sequence: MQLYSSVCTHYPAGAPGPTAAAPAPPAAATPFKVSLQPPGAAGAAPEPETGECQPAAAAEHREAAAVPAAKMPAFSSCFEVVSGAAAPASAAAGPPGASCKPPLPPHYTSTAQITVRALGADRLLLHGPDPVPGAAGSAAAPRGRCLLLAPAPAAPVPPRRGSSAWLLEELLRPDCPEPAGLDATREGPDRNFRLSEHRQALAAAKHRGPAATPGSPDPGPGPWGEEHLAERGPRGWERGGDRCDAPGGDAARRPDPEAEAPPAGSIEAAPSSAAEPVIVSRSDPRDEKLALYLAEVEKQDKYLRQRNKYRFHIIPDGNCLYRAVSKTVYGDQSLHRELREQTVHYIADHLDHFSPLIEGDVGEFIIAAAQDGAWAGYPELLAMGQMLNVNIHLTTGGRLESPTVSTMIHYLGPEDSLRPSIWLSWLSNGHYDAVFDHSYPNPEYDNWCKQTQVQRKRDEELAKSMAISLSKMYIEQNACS
Put plainly: affinity purification with mass spectrometry; co-immunoprecipitation coupled with LC-MS/MS, BMDMs; hits judged by coverage rate, unique peptides and FLAG/IgG ratios.

B1: PRDX1 in bone marrow-derived macrophages (protein, UniProt P35700 1-199)
chain: MSSGNAKIGYPAPNFKATAVMPDGQFKDISLSEYKGKYVVFFFYPLDFTFVCPTEIIAFSDRADEFKKLNCQVIGASVDSHFCHLAWINTPKKQGGLGPMNIPLISDPKRTIAQDYGVLKADEGISFRGLFIIDDKGILRQITINDLPVGRSVDEIIRLVQAFQFTDKHGEVCPAGWKPGSDTIKPDVNKSKEYFSKQK
Take B1: the binding result is on record as “binds”.

The record behind these values is publication PMC12203675.
